The values that follow come from PMC10572361.

The assay addresses BIRC5 (baculoviral IAP repeat containing 5; Survivin) (human (endogenous in A549)), O15392. In words: co-IP; Co-IP in A549 cells; which protein was precipitated is not told; n = 3. The note with it: remark: other sources report otherwise.

Results are given in words; binding and its absence hold for the method and conditions named. Binding seen in cells or lysates may run through a third protein. Some entries that bind do so weakly or less than the wild type.

B1: caspase3, P42574 1-277 (enzyme)
chain: MENTENSVDSKSIKNLEPKIIHGSESMDSGISLDNSYKMDYPEMGLCIIINNKNFHKSTGMTSRSGTDVDAANLRETFRNLKYEVRNKNDLTREEIVELMRDVSKEDHSKRSSFVCVLLSHGEEGIIFGTNGPVDLKKITNFFRGDRCRSLTGKPKLFIIQACRGTELDCGIETDSGVDDDMACHKIPVEADFLYAYSTAPGYYSWRNSKDGSWFIQSLCAMLKQYADKLEFMHILTRVNRKVATEFESFSFDATFHAKKQIPCIVSMLTKELYFYH
On to B1, for which the binding result is reported as “binds”.
